Data from the odorant receptor screen of Mainland et al. (2015).
Values joined by “and” are separate entries in the source; they are usually repeats but may differ in a detail not shown here. Equal entries are not always repeated. Some of the results follow. Single wells; the ratio to wells without odorant was worked out here, and repeats agree poorly.

system: OR6C74 clone 1441; test: odorant receptor activation (CRE luciferase / Renilla) (fold of no-odor wells); higher = more activation; conditions: 100 µM

| Structure (SMILES) | odorant receptor activation |
| --- | --- |
| CC12C=CCC1C1CCC3=CC(=O)CCC3(C)C1CC2 (centres undefined) [androstadienone] | 0.927 |
| O=C1CCCCCCCCCCCC(=O)OCCO1 [ethylene brassylate] | 1.78 |
| CCCCCC(=O)O [caproic acid] | 0.121 |
| O=C1CCCCC1 [Cyclohexanone] | 1.16 |
| CC(C)CC(=O)O [isovaleric acid] | 0.846 |

system: OR6C75 clone 1519; test: as above; conditions: 100 µM

| Structure (SMILES) | odorant receptor activation |
| --- | --- |
| COC(=O)c1ccccc1 [methyl benzoate] | 1.14 and 0.952 |
| CCCCCOC(C)=O [n-amyl acetate] | 0.883 and 0.77 |
| C=CCc1ccc(OC(C)=O)c(OC)c1 [eugenol acetate] | 2.02 |
| CC12CCC(CC1)C(C)(C)O2 [cineole] | 0.955 |
| CCCC(=O)O [butyric acid] | 1.25 |
| CCCCCC(C)=O [2-heptanone] | 1.25 and 0.66 |
| CC(C)(C)c1ccc(CCC=O)cc1 [bourgeonal] | 1.07 |
| CC(=O)OC1CC2CCC1(C)C2(C)C (centres undefined) [isobornyl acetate] | 0.976 and 1.06 |
| CCCCO [1-butanol] | 1.12 |
| CC(=O)c1ccccc1 [acetophenone] | 1.07 and 0.831 |
| COc1ccccc1O [guaiacol] | 0.789 and 0.745 |
| O=CCc1ccccc1 [phenyl acetaldehyde] | 1.36 |
| CC12C=CCC1C1CCC3CC(=O)CCC3(C)C1CC2 (centres undefined) [androstenone] | 0.906 |
| C=C(C)C1CC=C(C)C(=O)C1 (centres undefined) [r-carvone] | 0.979 |
| C=C(C)C1CC=CCC1 (centres undefined) [r-limonene] | 0.983 and 1.2 and 0.907 |
| COC(=O)c1ccccc1O [methyl salicylate] | 0.959 |
| CCCCCCCCOC(C)=O [octyl acetate] | 0.795 |
| CCC1(O)C2(C)CCC(C2)C1(C)C (centres undefined) [2-ethylfenchol] | 1.21 |
| CC(C)=CCCC(C)=CC=O [citral] | 1.24 |
| CC1=NC(C)SC1C (centres undefined) | 1.17 and 0.893 |
| CC12C=CCC1C1CCC3=CC(=O)CCC3(C)C1CC2 (centres undefined) [androstadienone] | 0.91 and 0.813 |
| O=C1CCCCCCCCCCCC(=O)OCCO1 [ethylene brassylate] | 1.06 |
| CCCCCC(=O)O [caproic acid] | 1.06 |
| O=C1CCCCC1 [Cyclohexanone] | 1.13 and 0.846 |
| CC(C)CC(=O)O [isovaleric acid] | 0.692 |

system: OR6C76 clone 1414; test: as above; conditions: 100 µM

| Structure (SMILES) | odorant receptor activation |
| --- | --- |
| COC(=O)c1ccccc1 [methyl benzoate] | 0.698 |
| CCCCCOC(C)=O [n-amyl acetate] | 0.684 |
| CC1COCc2cc3c(cc21)C(C)(C)C(C)C3(C)C (centres undefined) [galaxolide] | 3.96 |
| C=CCc1ccc(OC(C)=O)c(OC)c1 [eugenol acetate] | 1.43 |
| CC12CCC(CC1)C(C)(C)O2 [cineole] | 0.157 |
| CCCC(=O)O [butyric acid] | 0.16 |
| CCCCCC(C)=O [2-heptanone] | 0.948 |
| CC(C)(C)c1ccc(CCC=O)cc1 [bourgeonal] | 0.145 |
| CC(=O)OC1CC2CCC1(C)C2(C)C (centres undefined) [isobornyl acetate] | 0.783 |
| CCCCO [1-butanol] | 0.78 |
| CC(=O)c1ccccc1 [acetophenone] | 0.93 |
| COc1ccccc1O [guaiacol] | 0.77 |
| O=CCc1ccccc1 [phenyl acetaldehyde] | 1.34 |
| CC12C=CCC1C1CCC3CC(=O)CCC3(C)C1CC2 (centres undefined) [androstenone] | 0.911 |
| C=C(C)C1CC=C(C)C(=O)C1 (centres undefined) [r-carvone] | 1.08 |
| CCCCCCC=O [heptaldehyde] | 0.979 and 0.862 |
| C=C(C)C1CC=CCC1 (centres undefined) [r-limonene] | 1.36 and 0.946 |
| COC(=O)c1ccccc1O [methyl salicylate] | 0.923 |
| CCCCCCCCOC(C)=O [octyl acetate] | 0.702 |
| CCC1(O)C2(C)CCC(C2)C1(C)C (centres undefined) [2-ethylfenchol] | 0.636 |
| CC(C)=CCCC(C)=CC=O [citral] | 0.204 |
| CC1=NC(C)SC1C (centres undefined) | 1.22 |
| CC12C=CCC1C1CCC3=CC(=O)CCC3(C)C1CC2 (centres undefined) [androstadienone] | 0.85 |
| O=C1CCCCCCCCCCCC(=O)OCCO1 [ethylene brassylate] | 1.25 |
| CCCCCC(=O)O [caproic acid] | 0.181 |
| O=C1CCCCC1 [Cyclohexanone] | 0.866 |
| CC(C)CC(=O)O [isovaleric acid] | 0.791 |

system: OR6F1 clone 1039; test: as above; conditions: 100 µM

| Structure (SMILES) | odorant receptor activation |
| --- | --- |
| COC(=O)c1ccccc1 [methyl benzoate] | 1.61 |
| CCCCCOC(C)=O [n-amyl acetate] | 1.51 |
| CC1COCc2cc3c(cc21)C(C)(C)C(C)C3(C)C (centres undefined) [galaxolide] | 7.79 |
| C=CCc1ccc(OC(C)=O)c(OC)c1 [eugenol acetate] | 1.96 |
| CC12CCC(CC1)C(C)(C)O2 [cineole] | 0.771 |
| CCCC(=O)O [butyric acid] | 1.29 |
| CCCCCC(C)=O [2-heptanone] | 0.722 |
| CC(C)(C)c1ccc(CCC=O)cc1 [bourgeonal] | 0.859 |
| CC(=O)OC1CC2CCC1(C)C2(C)C (centres undefined) [isobornyl acetate] | 1.84 |
| CCCCO [1-butanol] | 2.49 |
| CC(=O)c1ccccc1 [acetophenone] | 0.834 |
| COc1ccccc1O [guaiacol] | 2.54 |
| O=CCc1ccccc1 [phenyl acetaldehyde] | 1.29 |
| CC12C=CCC1C1CCC3CC(=O)CCC3(C)C1CC2 (centres undefined) [androstenone] | 1.22 |
| C=C(C)C1CC=C(C)C(=O)C1 (centres undefined) [r-carvone] | 0.875 |
| CCCCCCC=O [heptaldehyde] | 0.791 and 1.47 |
| C=C(C)C1CC=CCC1 (centres undefined) [r-limonene] | 1.3 and 1.59 |
| COC(=O)c1ccccc1O [methyl salicylate] | 0.988 |
| CCCCCCCCOC(C)=O [octyl acetate] | 0.909 |
| CCC1(O)C2(C)CCC(C2)C1(C)C (centres undefined) [2-ethylfenchol] | 2.97 |
| CC(C)=CCCC(C)=CC=O [citral] | 1.24 |
| CC1=NC(C)SC1C (centres undefined) | 0.856 |
| CC12C=CCC1C1CCC3=CC(=O)CCC3(C)C1CC2 (centres undefined) [androstadienone] | 1.44 |
| O=C1CCCCCCCCCCCC(=O)OCCO1 [ethylene brassylate] | 2.31 |
| CCCCCC(=O)O [caproic acid] | 0.991 |
| O=C1CCCCC1 [Cyclohexanone] | 0.934 |
| CC(C)CC(=O)O [isovaleric acid] | 1.32 |
